In PMC10735217:
No constants are given. Whether binding was seen depends on the method and setting. Binding seen in cells or lysates may run through a third protein. Binding calls can cover weak binding; strength is not graded here.

Protein sequences, listed by entry. Tags and fused reporters are not part of them. Lines headed by an entry give the natural chain unless they say otherwise; changes in a name come on top.
UniProt Q9Y2J4: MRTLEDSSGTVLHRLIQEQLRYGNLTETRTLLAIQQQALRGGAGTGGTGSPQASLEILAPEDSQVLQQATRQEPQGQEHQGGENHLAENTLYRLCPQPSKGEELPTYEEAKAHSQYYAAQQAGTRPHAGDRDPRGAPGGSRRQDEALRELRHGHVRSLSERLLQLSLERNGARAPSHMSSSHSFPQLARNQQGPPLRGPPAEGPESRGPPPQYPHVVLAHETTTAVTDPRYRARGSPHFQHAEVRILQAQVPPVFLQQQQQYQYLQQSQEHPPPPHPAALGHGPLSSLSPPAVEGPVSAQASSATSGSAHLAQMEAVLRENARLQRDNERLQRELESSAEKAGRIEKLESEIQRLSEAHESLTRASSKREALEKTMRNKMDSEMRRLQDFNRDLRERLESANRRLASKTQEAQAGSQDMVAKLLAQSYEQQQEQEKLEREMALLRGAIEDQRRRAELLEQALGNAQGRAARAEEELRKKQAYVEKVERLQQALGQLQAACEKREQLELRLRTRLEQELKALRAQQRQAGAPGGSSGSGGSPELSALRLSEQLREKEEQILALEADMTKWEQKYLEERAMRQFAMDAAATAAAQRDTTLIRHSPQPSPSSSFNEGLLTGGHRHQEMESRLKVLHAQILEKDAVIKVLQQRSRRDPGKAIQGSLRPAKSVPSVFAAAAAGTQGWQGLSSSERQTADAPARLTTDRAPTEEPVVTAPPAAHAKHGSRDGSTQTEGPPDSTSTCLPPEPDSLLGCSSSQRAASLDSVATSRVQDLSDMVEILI
UniProt P46937: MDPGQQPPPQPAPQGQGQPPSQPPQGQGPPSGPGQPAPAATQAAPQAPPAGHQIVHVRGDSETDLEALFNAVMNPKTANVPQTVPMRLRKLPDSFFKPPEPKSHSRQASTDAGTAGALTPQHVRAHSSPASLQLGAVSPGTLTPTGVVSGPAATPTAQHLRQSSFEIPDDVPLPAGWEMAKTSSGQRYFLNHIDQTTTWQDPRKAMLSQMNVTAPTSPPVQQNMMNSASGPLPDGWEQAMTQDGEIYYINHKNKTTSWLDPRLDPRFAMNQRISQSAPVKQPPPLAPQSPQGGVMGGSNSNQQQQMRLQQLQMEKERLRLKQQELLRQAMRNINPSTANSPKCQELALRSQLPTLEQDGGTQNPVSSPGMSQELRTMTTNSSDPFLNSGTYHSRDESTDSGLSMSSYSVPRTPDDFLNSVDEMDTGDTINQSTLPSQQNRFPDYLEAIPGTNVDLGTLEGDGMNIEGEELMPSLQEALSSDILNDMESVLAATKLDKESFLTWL

Tests used:
Test in all cases: co-IP; anti-FLAG M2 magnetic beads on lysates of HEK293T cells at high cell density co-expressing FLAG-AMOTL2 constructs and HA-YAP; overnight at 4 °C; eluted with FLAG peptide; anti-HA immunoblot
[1] = biological target: FLAG-tagged exon 5-skipped AMOTL2 (∆5) (UniProt Q9Y2J4)
[2] = biological target: FLAG-tagged exon 9-skipped AMOTL2 (∆9) (UniProt Q9Y2J4)
[3] = biological target: FLAG-tagged double exon-skipped AMOTL2 (∆5∆9) (UniProt Q9Y2J4)

binding [1]: binds
binding [2]: binds
binding [3]: binds
Substance: HA-tagged YAP (Yes-associated protein) (from UniProt P46937 1-504)
